Experimental data taken from PMC10682436.

Target: FLAG-tagged OVOL2 stably expressed in EL4 T cells (mouse) (UniProt Q8CIV7)
Assay: affinity purification with mass spectrometry; anti-FLAG M2 agarose IP (4 h, 4 °C) from EL4 T cells stably expressing FLAG-tagged OVOL2, with (20 or 100 unit) or without DNase I; washed five times in Nonidet P-40 lysis buffer; eluted with 3xFlag peptide; LC-MS/MS; three independent analyses; empty vector control

“HDAC1, endogenous in EL4 T cells (from UniProt O09106 1-482)” was tested, and the binding was “binds”.
With “HDAC2, endogenous in EL4 T cells (from UniProt P70288 1-488)” the binding was “binds”.

No constants are given. Whether binding was seen depends on the method and setting. In cells and extracts the contact can be indirect. These calls come from enrichment with a bait or labelling near it, and not all partners need be listed.
